Laboratory results: article doi:10.1101/2024.09.20.612365, “Preventing Inappropriate Signals Pre- and Post-Ligand Perception by a Toggle-Switch Mechanism of ERECTA” (bioRxiv, 2024)
Results are given in words; binding and its absence hold for the method and conditions named. In cells and extracts the contact can be indirect. Some results given as binding are weak or reduced against the parent protein; the word gives no strength. Where a sequence is shown, tags or fusion partners need not be part of it.

T1: PUB30-YFP (Arabidopsis) (UniProt Q058P4)
T1 sequence: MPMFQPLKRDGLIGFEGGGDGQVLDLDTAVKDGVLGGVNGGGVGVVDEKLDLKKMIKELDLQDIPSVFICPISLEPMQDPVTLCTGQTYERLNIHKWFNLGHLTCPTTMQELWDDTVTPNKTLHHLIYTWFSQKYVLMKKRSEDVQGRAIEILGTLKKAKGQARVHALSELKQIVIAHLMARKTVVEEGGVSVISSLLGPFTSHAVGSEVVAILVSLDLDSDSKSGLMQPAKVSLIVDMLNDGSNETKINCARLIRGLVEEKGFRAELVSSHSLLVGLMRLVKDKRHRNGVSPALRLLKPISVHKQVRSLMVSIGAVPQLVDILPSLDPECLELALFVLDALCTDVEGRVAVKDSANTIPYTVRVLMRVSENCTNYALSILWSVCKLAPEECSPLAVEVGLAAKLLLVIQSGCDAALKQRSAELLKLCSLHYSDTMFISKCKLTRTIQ

T2: ER_(T/S8E)-FLAG, phosphomimetic version (Arabidopsis) (UniProt Q42371)
T2 sequence: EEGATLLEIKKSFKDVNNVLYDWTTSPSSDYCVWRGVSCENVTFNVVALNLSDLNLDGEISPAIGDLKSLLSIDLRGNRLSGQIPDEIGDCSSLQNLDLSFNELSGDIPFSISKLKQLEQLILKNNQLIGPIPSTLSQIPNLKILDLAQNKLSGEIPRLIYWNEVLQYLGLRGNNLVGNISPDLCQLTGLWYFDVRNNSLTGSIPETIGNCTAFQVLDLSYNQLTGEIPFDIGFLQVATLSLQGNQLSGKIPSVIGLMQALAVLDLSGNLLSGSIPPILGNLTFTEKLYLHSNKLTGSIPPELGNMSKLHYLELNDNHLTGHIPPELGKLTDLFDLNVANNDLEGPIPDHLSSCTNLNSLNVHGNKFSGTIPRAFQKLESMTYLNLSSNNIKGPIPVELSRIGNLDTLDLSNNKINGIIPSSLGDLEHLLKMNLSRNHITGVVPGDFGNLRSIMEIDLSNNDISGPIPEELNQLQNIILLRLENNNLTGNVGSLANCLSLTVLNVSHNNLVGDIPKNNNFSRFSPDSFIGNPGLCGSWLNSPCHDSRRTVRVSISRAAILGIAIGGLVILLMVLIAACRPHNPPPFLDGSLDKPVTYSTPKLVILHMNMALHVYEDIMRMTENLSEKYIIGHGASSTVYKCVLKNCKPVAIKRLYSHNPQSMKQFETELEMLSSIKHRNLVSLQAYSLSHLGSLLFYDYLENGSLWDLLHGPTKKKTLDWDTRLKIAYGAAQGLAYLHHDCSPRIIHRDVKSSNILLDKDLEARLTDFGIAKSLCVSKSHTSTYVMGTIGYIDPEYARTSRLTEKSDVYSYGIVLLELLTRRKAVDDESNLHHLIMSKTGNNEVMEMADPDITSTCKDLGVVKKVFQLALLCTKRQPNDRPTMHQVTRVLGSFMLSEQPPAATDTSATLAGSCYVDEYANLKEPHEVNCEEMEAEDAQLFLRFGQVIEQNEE

T3: ER_(T/S8A)-FLAG, phosphonull version (Arabidopsis) (UniProt Q42371)
T3 sequence: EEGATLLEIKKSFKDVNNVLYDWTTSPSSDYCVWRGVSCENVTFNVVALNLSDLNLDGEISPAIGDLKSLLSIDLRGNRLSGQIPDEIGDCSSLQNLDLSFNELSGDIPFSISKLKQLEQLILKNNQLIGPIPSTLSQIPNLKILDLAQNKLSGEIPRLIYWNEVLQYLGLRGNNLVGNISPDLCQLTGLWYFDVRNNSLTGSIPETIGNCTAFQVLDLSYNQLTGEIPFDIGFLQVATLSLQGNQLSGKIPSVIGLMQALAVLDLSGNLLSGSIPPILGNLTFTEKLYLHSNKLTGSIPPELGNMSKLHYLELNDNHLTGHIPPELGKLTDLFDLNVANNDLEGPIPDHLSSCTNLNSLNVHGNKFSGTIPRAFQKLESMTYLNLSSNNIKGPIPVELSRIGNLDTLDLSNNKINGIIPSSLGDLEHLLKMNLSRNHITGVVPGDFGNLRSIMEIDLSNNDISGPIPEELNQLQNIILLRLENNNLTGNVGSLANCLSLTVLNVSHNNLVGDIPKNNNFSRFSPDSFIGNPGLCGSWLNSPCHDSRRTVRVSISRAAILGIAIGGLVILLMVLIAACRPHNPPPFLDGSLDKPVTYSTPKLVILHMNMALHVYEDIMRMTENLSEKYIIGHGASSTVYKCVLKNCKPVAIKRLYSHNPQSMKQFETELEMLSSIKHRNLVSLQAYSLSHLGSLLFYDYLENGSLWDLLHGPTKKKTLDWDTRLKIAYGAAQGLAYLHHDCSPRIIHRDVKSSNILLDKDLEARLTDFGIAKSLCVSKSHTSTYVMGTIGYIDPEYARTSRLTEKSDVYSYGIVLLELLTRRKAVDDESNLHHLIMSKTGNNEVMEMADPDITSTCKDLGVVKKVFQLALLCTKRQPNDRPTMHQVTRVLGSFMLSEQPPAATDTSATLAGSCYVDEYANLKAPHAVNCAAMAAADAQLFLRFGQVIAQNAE

T4: ER-FLAG (Arabidopsis) (UniProt Q42371)
T4 sequence: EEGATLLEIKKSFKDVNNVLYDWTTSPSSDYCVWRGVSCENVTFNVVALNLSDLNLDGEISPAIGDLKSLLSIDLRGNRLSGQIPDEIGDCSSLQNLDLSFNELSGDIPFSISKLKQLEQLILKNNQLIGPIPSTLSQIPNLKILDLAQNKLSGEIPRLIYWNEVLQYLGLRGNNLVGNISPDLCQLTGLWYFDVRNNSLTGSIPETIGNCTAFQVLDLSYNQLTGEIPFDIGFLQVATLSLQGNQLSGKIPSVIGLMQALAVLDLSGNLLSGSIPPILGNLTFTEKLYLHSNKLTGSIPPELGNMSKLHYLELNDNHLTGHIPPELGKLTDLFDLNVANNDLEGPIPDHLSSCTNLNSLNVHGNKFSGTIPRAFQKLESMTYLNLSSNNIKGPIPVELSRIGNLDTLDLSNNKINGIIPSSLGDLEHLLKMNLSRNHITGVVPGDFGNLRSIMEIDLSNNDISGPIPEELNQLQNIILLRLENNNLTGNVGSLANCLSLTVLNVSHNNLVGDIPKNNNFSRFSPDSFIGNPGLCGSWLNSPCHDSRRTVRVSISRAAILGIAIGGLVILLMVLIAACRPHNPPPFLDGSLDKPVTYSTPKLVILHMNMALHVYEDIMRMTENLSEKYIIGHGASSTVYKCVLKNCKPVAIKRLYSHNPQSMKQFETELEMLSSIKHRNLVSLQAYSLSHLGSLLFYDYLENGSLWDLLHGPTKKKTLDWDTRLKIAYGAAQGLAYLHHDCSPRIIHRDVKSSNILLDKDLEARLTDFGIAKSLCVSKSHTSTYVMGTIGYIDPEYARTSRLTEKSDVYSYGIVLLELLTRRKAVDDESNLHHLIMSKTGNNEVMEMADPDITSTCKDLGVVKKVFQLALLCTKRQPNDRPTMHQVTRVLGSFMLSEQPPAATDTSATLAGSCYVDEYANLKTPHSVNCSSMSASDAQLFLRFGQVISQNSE


Key:
PUB30-YFP (Arabidopsis) = biological target: T1, PUB30-YFP (Arabidopsis); assay: co-IP; proteins from transgenic Arabidopsis plants (PUB30pro::PUB30-YFP with ERpro::ER-FLAG variants) immunoprecipitated with anti-GFP beads, blots with anti-GFP and anti-FLAG
[1] = biological target: T2, ER_(T/S8E)-FLAG, phosphomimetic version (Arabidopsis); assay: co-IP; Arabidopsis protoplasts co-transfected with PUB30-MYC or PUB31-MYC and ER-FLAG variants; 5 μM EPFL6 for 1 h; immunoprecipitated with anti-FLAG beads, blots with anti-FLAG and anti-MYC
[2] = biological target: T3, ER_(T/S8A)-FLAG, phosphonull version (Arabidopsis); assay: as above
ER-FLAG (Arabidopsis) = biological target: T4, ER-FLAG (Arabidopsis); assay: as above

| Binder | binding (PUB30-YFP (Arabidopsis)) | binding [1] | binding [2] | binding (ER-FLAG (Arabidopsis)) |
| --- | --- | --- | --- | --- |
| ER-FLAG (receptor, UniProt Q42371 25-976) EEGATLLEIKKSFKDVNNVLYDWTTSPSSDYCVWRGVSCENVTFNVVALNLSDLNLDGEISPAIGDLKSLLSIDLRGNRLSGQIPDEIGDCSSLQNLDLSFNELSGDIPFSISKLKQLEQLILKNNQLIGPIPSTLSQIPNLKILDLAQNKLSGEIPRLIYWNEVLQYLGLRGNNLVGNISPDLCQLTGLWYFDVRNNSLTGSIPETIGNCTAFQVLDLSYNQLTGEIPFDIGFLQVATLSLQGNQLSGKIPSVIGLMQALAVLDLSGNLLSGSIPPILGNLTFTEKLYLHSNKLTGSIPPELGNMSKLHYLELNDNHLTGHIPPELGKLTDLFDLNVANNDLEGPIPDHLSSCTNLNSLNVHGNKFSGTIPRAFQKLESMTYLNLSSNNIKGPIPVELSRIGNLDTLDLSNNKINGIIPSSLGDLEHLLKMNLSRNHITGVVPGDFGNLRSIMEIDLSNNDISGPIPEELNQLQNIILLRLENNNLTGNVGSLANCLSLTVLNVSHNNLVGDIPKNNNFSRFSPDSFIGNPGLCGSWLNSPCHDSRRTVRVSISRAAILGIAIGGLVILLMVLIAACRPHNPPPFLDGSLDKPVTYSTPKLVILHMNMALHVYEDIMRMTENLSEKYIIGHGASSTVYKCVLKNCKPVAIKRLYSHNPQSMKQFETELEMLSSIKHRNLVSLQAYSLSHLGSLLFYDYLENGSLWDLLHGPTKKKTLDWDTRLKIAYGAAQGLAYLHHDCSPRIIHRDVKSSNILLDKDLEARLTDFGIAKSLCVSKSHTSTYVMGTIGYIDPEYARTSRLTEKSDVYSYGIVLLELLTRRKAVDDESNLHHLIMSKTGNNEVMEMADPDITSTCKDLGVVKKVFQLALLCTKRQPNDRPTMHQVTRVLGSFMLSEQPPAATDTSATLAGSCYVDEYANLKTPHSVNCSSMSASDAQLFLRFGQVISQNSE | binds |  |  |  |
| GST-PUB30 (plant U-box E3 ligase PUB30) (enzyme) MPMFQPLKRDGLIGFEGGGDGQVLDLDTAVKDGVLGGVNGGGVGVVDEKLDLKKMIKELDLQDIPSVFICPISLEPMQDPVTLCTGQTYERLNIHKWFNLGHLTCPTTMQELWDDTVTPNKTLHHLIYTWFSQKYVLMKKRSEDVQGRAIEILGTLKKAKGQARVHALSELKQIVIAHLMARKTVVEEGGVSVISSLLGPFTSHAVGSEVVAILVSLDLDSDSKSGLMQPAKVSLIVDMLNDGSNETKINCARLIRGLVEEKGFRAELVSSHSLLVGLMRLVKDKRHRNGVSPALRLLKPISVHKQVRSLMVSIGAVPQLVDILPSLDPECLELALFVLDALCTDVEGRVAVKDSANTIPYTVRVLMRVSENCTNYALSILWSVCKLAPEECSPLAVEVGLAAKLLLVIQSGCDAALKQRSAELLKLCSLHYSDTMFISKCKLTRTIQ |  | binds | binds weakly | binds |
| PUB31-MYC (enzyme, UniProt Q9FHN9 1-444) MPMFQPSKNGGFDGHILDLHSAVKDGVLGGGDGKFLVVVTDEKKKLDLKEMISELELPEIPSVFICPISLEPMQDPVTLCTGQTYERSNILKWFNIGHCTCPTTMQELWDDLVTPNKTLHQLIYTWFSQKYVLMKKRSEDVQGRAIEILGTLRKAKGKAKVHALSELKQVVMAHAIAKKTVVDEGGVFVISSLLSPFTSHAVGSEAIAILVNLELDSDSKAGLMQPARVSLMVDMLNDGSIETKINCARLIGRLVEEKGFRAELVSSHSLLVGLMRLVKDRRRRNGVSPALTLLKSVSVHKQVRNLLVRIGAVPQLVDVLPCLDVECLESALFVLDSLCLESEGRIALKDSVNTIPHTVRLLMKVSEKCTNYAISILWSVCKLASEECSSLAVEVGLAAKLLLVIQSGCDPALKQRSAELLKLCSLHYSDSMFISKCKLTRTIQ |  | binds | binds weakly | binds |
